Record: PubChem BioAssay AID743454 (Peter MacCallum Cancer Centre, 2014)
The whole screen tested about 18,000 reagents; this is a random part of them. 450 of all reagents (2.5%) were called active. 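Single biological run; no consistent viability z cut-off exists, so the class columns, not z-scores, define the calls.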 No sequences are given here.

Purpose: 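Search for knock-downs that restore vorinostat killing in resistant colon cancer cells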 (primary screen)
System: human HCT116-VR colon cancer cells, selected for vorinostat resistance
Reagents: siRNA pool against human genes, 40 nM siRNA pool
Timing: vorinostat for 24 h, read-out about 72 h after transfection
Treatment: vorinostat at 2.5 µM final
Measurement: 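Two measures, CellTiter-Fluor viability and luminescent caspase 3/7 activity, each as fold change against same-plate mock wells, mean of duplicates, then screen-wide robust z-score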
Reading the numbers: viability robust z-score: higher = more viable cells than screen typical; caspase robust z-score: higher = more caspase 3/7 activity than screen typical
Active means: 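Hits are knock-downs in viability class RV1/RV2 or caspase class CA1/CA2, excluding ones that killed cells in the no-drug cell-count arm; hits then retested with single siRNAs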

SPATA17
- viability hit class: no change
- caspase hit class: no change
- viability robust z-score: 1.84
- caspase robust z-score: 0.25
- activity call: inactive

H2AB1
- viability hit class: no change
- caspase hit class: no change
- viability robust z-score: 1.32
- caspase robust z-score: -0.18
- activity call: inactive

PCSK2
- viability hit class: no change
- caspase hit class: no change
- viability robust z-score: -0.42
- caspase robust z-score: -0.57
- activity call: inactive

PXYLP1
- viability hit class: no change
- caspase hit class: no change
- viability robust z-score: -2.84
- caspase robust z-score: 1.2
- activity call: inactive

A run of entries of the results above, as a working copy:
SPATA17
- viability hit class: no change
- caspase hit class: no change
- viability robust z-score: 1.84
- caspase robust z-score: 0.25
- activity call: inactive

H2AB1
- viability hit class: no change
- caspase hit class: no change
- viability robust z-score: 1.32
- caspase robust z-score: -0.18
- activity call: inactive

Continued:
WDR93
- viability hit class: no change
- caspase hit class: no change
- viability robust z-score: 0.5
- caspase robust z-score: 0.18
- activity call: inactive

LIME1
- viability hit class: no change
- caspase hit class: no change
- viability robust z-score: -0.08
- caspase robust z-score: 2.35
- activity call: inactive

NANOS2
- viability hit class: no change
- caspase hit class: no change
- viability robust z-score: 0.64
- caspase robust z-score: -0.5
- activity call: inactive

SANBR
- viability hit class: no change
- caspase hit class: no change
- viability robust z-score: 1.14
- caspase robust z-score: -0.22
- activity call: inactive

COX6B2
- viability hit class: no change
- caspase hit class: no change
- viability robust z-score: 0.22
- caspase robust z-score: -0.88
- activity call: inactive

SLC22A8
- viability hit class: no change
- caspase hit class: no change
- viability robust z-score: 1.12
- caspase robust z-score: 2.49
- activity call: inactive

CARD10
- viability hit class: no change
- caspase hit class: no change
- viability robust z-score: -0.24
- caspase robust z-score: -0.84
- activity call: inactive

UBA3
- viability hit class: no change
- caspase hit class: no change
- viability robust z-score: 0.66
- caspase robust z-score: 0.85
- activity call: inactive
